{"source": "patent US8653096B2", "about": "“Chemokine receptor antagonists and methods of use thereof” (Millennium Pharmaceuticals, Inc., priority 2001, dated 2014)", "target": "T1, RANTES/MIP-1α chemokine receptor (CCR1) in THP-1 cell membranes (Homo sapiens, UniProt P32246)", "T1 construct": "Membranes were prepared from THP-1 cells (ATCC #TIB202); host or cells: THP-1 cells (membrane preparation)", "T1 sequence (P32246 1-355)": "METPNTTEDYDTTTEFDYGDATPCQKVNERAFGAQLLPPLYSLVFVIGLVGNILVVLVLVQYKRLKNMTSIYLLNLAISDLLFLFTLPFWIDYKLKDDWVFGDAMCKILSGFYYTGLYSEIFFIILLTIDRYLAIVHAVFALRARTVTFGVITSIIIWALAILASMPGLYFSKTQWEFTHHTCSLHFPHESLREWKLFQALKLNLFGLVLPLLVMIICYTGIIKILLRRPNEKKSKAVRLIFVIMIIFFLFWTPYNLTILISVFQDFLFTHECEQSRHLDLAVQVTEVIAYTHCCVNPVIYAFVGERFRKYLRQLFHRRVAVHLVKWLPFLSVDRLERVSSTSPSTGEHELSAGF", "test": "Receptor binding assay: 125I-RANTES or 125I-MIP-1α binding to THP-1 cell membranes", "conditions": "inhibitor concentration required for 50% inhibition of specific binding, 125I-RANTES or 125I-MIP-1α as ligand", "method": "Membranes were prepared from THP-1 cells (ATCC #TIB202). Cells were harvested by centrifugation, washed twice with PBS (phosphate-buffered saline), and the cell pellets were frozen at −70 to −85° C. The frozen pellet was thawed in ice-cold lysis buffer consisting of 5 mM HEPES (N-2-hydroxyethylpiperazine-N′-2-ethane-sulfonic acid) pH 7.5, 2 mM EDTA (ethylenediaminetetraacetic acid), 5 μg/ml each aprotinin, leupeptin, and chymostatin (protease inhibitors), and 100 μg/ml PMSF (phenyl methane sulfonyl fluoride—also a protease inhibitor), at a concentration of 1 to 5×10^7 cells/ml. This procedure results in cell lysis. The suspension was mixed well to resuspend all of the frozen cell pellet. […] All clumps were resolved using a minihomogenizer, and the total protein concentration was determined using a protein assay kit (Bio-Rad, Hercules, Calif., cat #500-0002). […]\nBinding Assays utilized the membranes described above. […] The filters were rinsed with approximately 600 μl of binding buffer containing 0.5 M NaCl, dried, and the amount of bound radioactivity was determined by scintillation counting in a Topcount beta-plate counter.\nSpecific binding is defined as the total binding minus the non-specific binding; non-specific binding is the amount of cpm still detected in the presence of excess unlabeled Rantes or MIP-1α.", "note": "At least one structure is not confirmed: it was looked up by name or label, or the drawing left a doubt.", "data": [{"compound": "COc1ccc2c(c1)C(=CCCN1CCC(O)(c3ccc(Cl)c(C(F)(F)F)c3)CC1)c1cccnc1CO2", "note": "[Example 145, 4-(4-Chloro-3-trifuluoromethylphenyl)-1-[3-(5,11-dihydro-7-methoxy[1]benzoxepino[2,3-b]pyridin-5-ylidene)propyl]piperidin-4-ol]", "values": [{"measurement": "IC50", "value": 10, "unit": "µM"}]}]}
